In the assay the target is T1, HA-CIP29 (human) (UniProt P82979).
T1 sequence: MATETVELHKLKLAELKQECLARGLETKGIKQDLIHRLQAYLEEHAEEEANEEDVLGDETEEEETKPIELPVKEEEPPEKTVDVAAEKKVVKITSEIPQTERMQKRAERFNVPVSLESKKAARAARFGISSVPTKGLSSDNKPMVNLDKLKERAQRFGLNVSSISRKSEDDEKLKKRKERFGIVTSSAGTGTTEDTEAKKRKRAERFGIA
The assay is described as follows: affinity purification with mass spectrometry; tandem immunoprecipitation (first: HA, second: FLAG; peptide elution) from nuclear extract expressing both FLAG-URH49 and HA-CIP29, ATP depletion condition, RNase-treated; silver staining and LC-MS/MS.

Amino acid sequences for entries named in this document (tags omitted).
UniProt Q12905: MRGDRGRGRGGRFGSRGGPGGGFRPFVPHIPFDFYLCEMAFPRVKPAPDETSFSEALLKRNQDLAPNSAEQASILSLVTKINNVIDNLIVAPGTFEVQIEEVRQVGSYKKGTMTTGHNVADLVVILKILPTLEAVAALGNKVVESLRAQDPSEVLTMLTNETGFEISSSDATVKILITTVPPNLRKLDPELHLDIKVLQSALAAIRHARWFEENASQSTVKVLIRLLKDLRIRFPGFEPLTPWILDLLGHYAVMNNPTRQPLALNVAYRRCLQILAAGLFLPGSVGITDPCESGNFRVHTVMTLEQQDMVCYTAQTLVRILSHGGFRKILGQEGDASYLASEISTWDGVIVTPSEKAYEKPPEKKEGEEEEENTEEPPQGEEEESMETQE
UniProt Q9Y265: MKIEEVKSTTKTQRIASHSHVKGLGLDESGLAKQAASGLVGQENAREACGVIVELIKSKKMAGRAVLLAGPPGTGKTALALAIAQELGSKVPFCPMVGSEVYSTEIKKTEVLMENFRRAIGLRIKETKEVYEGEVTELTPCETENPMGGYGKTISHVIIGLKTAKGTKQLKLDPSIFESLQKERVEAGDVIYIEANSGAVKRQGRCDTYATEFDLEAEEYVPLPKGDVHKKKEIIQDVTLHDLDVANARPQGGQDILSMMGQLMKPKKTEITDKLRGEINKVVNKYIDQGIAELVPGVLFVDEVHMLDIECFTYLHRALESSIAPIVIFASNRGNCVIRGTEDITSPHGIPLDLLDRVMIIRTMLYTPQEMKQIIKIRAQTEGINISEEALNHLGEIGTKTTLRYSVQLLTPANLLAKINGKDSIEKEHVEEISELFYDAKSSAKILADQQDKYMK

Results are given in words; binding and its absence hold for the method and conditions named. In cells and extracts the contact can be indirect. These calls come from enrichment with a bait or labelling near it, and not all partners need be listed. Where a sequence is shown, tags or fusion partners need not be part of it.

For 4 molecules, binding results are on record in article PMC10789772.

Turning to ILF2 (from UniProt Q12905 1-390), the binding result is on record as “binds”.

RUVBL1 (from UniProt Q9Y265 1-456): the binding entry was “binds”.

B1: HNRNPM (protein, UniProt P52272 1-730)
chain: MAAGVEAAAEVAATEIKMEEESGAPGVPSGNGAPGPKGEGERPAQNEKRKEKNIKRGGNRFEPYANPTKRYRAFITNIPFDVKWQSLKDLVKEKVGEVTYVELLMDAEGKSRGCAVVEFKMEESMKKAAEVLNKHSLSGRPLKVKEDPDGEHARRAMQKVMATTGGMGMGPGGPGMITIPPSILNNPNIPNEIIHALQAGRLGSTVFVANLDYKVGWKKLKEVFSMAGVVVRADILEDKDGKSRGIGTVTFEQSIEAVQAISMFNGQLLFDRPMHVKMDERALPKGDFFPPERPQQLPHGLGGIGMGLGPGGQPIDANHLNKGIGMGNIGPAGMGMEGIGFGINKMGGMEGPFGGGMENMGRFGSGMNMGRINEILSNALKRGEIIAKQGGGGGGGSVPGIERMGPGIDRLGGAGMERMGAGLGHGMDRVGSEIERMGLVMDRMGSVERMGSGIERMGPLGLDHMASSIERMGQTMERIGSGVERMGAGMGFGLERMAAPIDRVGQTIERMGSGVERMGPAIERMGLSMERMVPAGMGAGLERMGPVMDRMATGLERMGANNLERMGLERMGANSLERMGLERMGANSLERMGPAMGPALGAGIERMGLAMGGGGGASFDRAIEMERGNFGGSFAGSFGGAGGHAPGVARKACQIFVRNLPFDFTWKMLKDKFNECGHVLYADIKMENGKSKGCGVVKFESPEVAERACRMMNGMKLSGREIDVRIDRNA
For B1, the binding result is “binds”.

B2: ILF3 (protein, UniProt Q12906 1-894)
chain: MRPMRIFVNDDRHVMAKHSSVYPTQEELEAVQNMVSHTERALKAVSDWIDEQEKGSSEQAESDNMDVPPEDDSKEGAGEQKTEHMTRTLRGVMRVGLVAKGLLLKGDLDLELVLLCKEKPTTALLDKVADNLAIQLAAVTEDKYEILQSVDDAAIVIKNTKEPPLSLTIHLTSPVVREEMEKVLAGETLSVNDPPDVLDRQKCLAALASLRHAKWFQARANGLKSCVIVIRVLRDLCTRVPTWGPLRGWPLELLCEKSIGTANRPMGAGEALRRVLECLASGIVMPDGSGIYDPCEKEATDAIGHLDRQQREDITQSAQHALRLAAFGQLHKVLGMDPLPSKMPKKPKNENPVDYTVQIPPSTTYAITPMKRPMEEDGEEKSPSKKKKKIQKKEEKAEPPQAMNALMRLNQLKPGLQYKLVSQTGPVHAPIFTMSVEVDGNSFEASGPSKKTAKLHVAVKVLQDMGLPTGAEGRDSSKGEDSAEETEAKPAVVAPAPVVEAVSTPSAAFPSDATAEQGPILTKHGKNPVMELNEKRRGLKYELISETGGSHDKRFVMEVEVDGQKFQGAGSNKKVAKAYAALAALEKLFPDTPLALDANKKKRAPVPVRGGPKFAAKPHNPGFGMGGPMHNEVPPPPNLRGRGRGGSIRGRGRGRGFGGANHGGYMNAGAGYGSYGYGGNSATAGYSQFYSNGGHSGNASGGGGGGGGGSSGYGSYYQGDNYNSPVPPKHAGKKQPHGGQQKPSYGSGYQSHQGQQQSYNQSPYSNYGPPQGKQKGYNHGQGSYSYSNSYNSPGGGGGSDYNYESKFNYSGSGGRSGGNSYGSGGASYNPGSHGGYGGGSGGGSSYQGKQGGYSQSNYNSPGSGQNYSGPPSSYQSSQGGYGRNADHSMNYQYR
For the molecule B2, the binding entry was “binds”.
